From PubChem BioAssay AID256 (DTP/NCI, 2004)
The list shows only some results of the screen, not a fair sample: it gathers tests that were run many times, whatever their T/C, doses with no T/C, and many T/C values between a quarter and a half above the control. Other doses and runs of a compound stand elsewhere. T/C gives the treated animals as a percentage of the vehicle group. Some entries give survivors of the animals treated and no T/C: the source files T/C as zero there, which appears to mark a toxic dose or a test without result, not a measured value. Some survivor counts are full or nearly so, which does not show that the dose was tolerated: the source hardly ever lists a survival T/C far under the control, and the zero likely stands for such cases as well. Survivors were counted at the toxicity check, usually on the fifth day, unless a day is given; later deaths do not show. Schedules are NCI's codes, taken here to give the interval after Q, in days (D) or hours (H), and the number of doses after X. Some entries hold several experiments; their values stand side by side, smallest first. For survival time, the PubChem record calls one and a half times the control and up active, and a quarter to a half above the control has no call in these data; cut-offs in other NCI protocols can differ. Signs of the kind (2×) count equal records among those shown. Some T/C values carry the count of animals alive at the toxicity check (mostly the fifth day); where none is given, no animal had died by that day.

Tested on: CD2F1 mice, L1210 leukemia ip, survival T/C
Test: NCI In Vivo Anticancer Drug Screen. Data for tumor model L1210 Leukemia (intraperitoneal) in CD2F1 (CDF1) mice
Details: higher T/C = longer survival
How it was run: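 Antitumor effect is scored in animals hosting a serially transplanted tumor. Values compare compound-dosed animals against vehicle-only controls as a simple quotient.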

[1] = T/C endpoint: mean survival time, dose: 100.0 mg/kg/injection, schedule: Q01DX009 (ip), vehicle: saline with Tween-80
[2] = T/C endpoint: mean survival time, dose: 200.0 mg/kg/injection, schedule: Q01DX009 (ip), vehicle: saline with Tween-80
[3] = T/C endpoint: mean survival time, dose: 400.0 mg/kg/injection, schedule: Q01DX009 (ip), vehicle: saline with Tween-80
[4] = T/C endpoint: mean survival time, dose: 400.0 mg/kg/injection, schedule: Q04DX003 (ip), vehicle: saline with Tween-80
[5] = T/C endpoint: mean survival time, dose: 200.0 mg/kg/injection, schedule: Q01DX001 (ip), vehicle: saline with Tween-80
[6] = T/C endpoint: mean survival time, dose: 400.0 mg/kg/injection, schedule: Q01DX001 (ip), vehicle: saline with Tween-80
[7] = T/C endpoint: mean survival time, dose: 50.0 mg/kg/injection, schedule: Q01DX009 (ip), vehicle: water
[8] = T/C endpoint: mean survival time, dose: 100.0 mg/kg/injection, schedule: Q01DX009 (ip), vehicle: water

SMILES: Cc1cc(NC(=O)Oc2ccc([N+](=O)[O-])cc2)ccc1S(=O)(=O)F
- T/C [1]: 91, 95, 96 % of control (2×)
- survivor count [2]: 3 of 3
- survivor count [3]: 1 of 3 and 5 of 6

SMILES: COC1/C=C\C=C(/C)C(=O)NC2=CC(=O)C=C(C2=O)C(OC)C(C)CC(OC)C(OC)C(C)/C=C(/C)C1OC(N)=O (configuration not stated)
- survivor count (T/C endpoint: mean survival time, dose: 3.0 mg/kg/injection, schedule: Q01DX009 (ip), vehicle: Klucel (hydroxypropylcellulose) (HPC)): 7 of 10
- survivor count (T/C endpoint: mean survival time, dose: 6.0 mg/kg/injection, schedule: Q01DX009 (ip), vehicle: Klucel (hydroxypropylcellulose) (HPC)): 0 of 10, 0 of 6, 4 of 6
- survivor count (T/C endpoint: mean survival time, dose: 12.0 mg/kg/injection, schedule: Q01DX009 (ip), vehicle: Klucel (hydroxypropylcellulose) (HPC)): 1 of 6
- survivor count (T/C endpoint: mean survival time, dose: 24.0 mg/kg/injection, schedule: Q01DX009 (ip), vehicle: Klucel (hydroxypropylcellulose) (HPC)): 0 of 6

SMILES: Nc1ccc(N)cc1
- survivor count (T/C endpoint: mean survival time, dose: 100.0 mg/kg/injection, schedule: Q04DX003 (ip), vehicle: saline with Tween-80): 0 of 6
- survivor count (T/C endpoint: mean survival time, dose: 200.0 mg/kg/injection, schedule: Q04DX003 (ip), vehicle: saline with Tween-80): 0 of 6
- survivor count [4]: 0 of 6

SMILES: CC[C@@]1(OC(=O)CN2CCCC2)C(=O)OCc2c1cc1n(c2=O)Cc2cc3ccccc3nc2-1
- T/C (T/C endpoint: median survival time, dose: 12.5 mg/kg/injection, schedule: Q04DX002 (ip), vehicle: water): 128 % of control
- T/C (T/C endpoint: median survival time, dose: 25.0 mg/kg/injection, schedule: Q04DX002 (ip), vehicle: water): 127 and 137 % of control
- T/C (T/C endpoint: median survival time, dose: 100.0 mg/kg/injection, schedule: Q04DX002 (ip), vehicle: water): 146 % of control

SMILES: C[NH-].C[NH-].[Br][Pt+2][Br]
- survivor count (T/C endpoint: mean survival time, dose: 20.0 mg/kg/injection, schedule: Q04DX003 (ip), vehicle: water): 10 of 10

SMILES: O/N=C/c1ccccc1
- survivor count [5]: 3 of 6
- survivor count [6]: 0 of 6

SMILES: CC1=C(N2CC2)C(=O)c2c(COC(N)=O)c3n(c2C1=O)C[C@H]1N[C@@H]31
- T/C (T/C endpoint: mean survival time, dose: 48.0 mg/kg/injection, schedule: Q01DX001 (ip), vehicle: distilled water + Tween-80): 131 % of control [5 of 6 alive]
- survivor count (T/C endpoint: mean survival time, dose: 96.0 mg/kg/injection, schedule: Q01DX001 (ip), vehicle: distilled water + Tween-80): 0 of 6

SMILES: C[C@@]1(CO)[C@H](O)CC[C@@]2(C)[C@H]1CC[C@H]1C[C@@H]3C[C@@]12CC[C@@]3(O)COC(=O)CN
- T/C (T/C endpoint: median survival time, dose: 40.0 mg/kg/injection, schedule: Q03HX027 (ip), vehicle: saline + alcohol): 126 % of control
- T/C (T/C endpoint: median survival time, dose: 60.0 mg/kg/injection, schedule: Q01DX009 (ip), vehicle: saline): 139 % of control
- survivor count (T/C endpoint: median survival time, dose: 80.0 mg/kg/injection, schedule: Q03HX027 (ip), vehicle: saline + alcohol): 10 of 10
- T/C (T/C endpoint: median survival time, dose: 100.0 mg/kg/injection, schedule: Q01DX005 (ip), vehicle: saline): 126 % of control
- T/C (T/C endpoint: median survival time, dose: 100.0 mg/kg/injection, schedule: Q01DX009 (ip), vehicle: saline + alcohol): 127 % of control
- T/C (T/C endpoint: median survival time, dose: 100.0 mg/kg/injection, schedule: Q01DX009 (ip), vehicle: saline): 140 % of control
- T/C (T/C endpoint: median survival time, dose: 166.6 mg/kg/injection, schedule: Q01DX005 (ip), vehicle: saline): 134 % of control
- survivor count (T/C endpoint: median survival time, dose: 166.67 mg/kg/injection, schedule: Q01DX009 (ip), vehicle: saline): 3 of 6
- survivor count (T/C endpoint: median survival time, dose: 200.0 mg/kg/injection, schedule: Q01DX005 (ip), vehicle: saline): 2 of 6
- survivor count (T/C endpoint: median survival time, dose: 277.7 mg/kg/injection, schedule: Q01DX005 (ip), vehicle: saline): 0 of 6
- survivor count (T/C endpoint: median survival time, dose: 277.7 mg/kg/injection, schedule: Q01DX009 (ip), vehicle: saline): 0 of 6
- survivor count (T/C endpoint: median survival time, dose: 277.78 mg/kg/injection, schedule: Q01DX009 (ip), vehicle: saline): 1 of 6
- survivor count (T/C endpoint: median survival time, dose: 400.0 mg/kg/injection, schedule: Q01DX005 (ip), vehicle: saline): 0 of 6
- survivor count (T/C endpoint: median survival time, dose: 462.97 mg/kg/injection, schedule: Q01DX009 (ip), vehicle: saline): 0 of 6

SMILES: CCOS(=O)(=O)c1ccc(N)c([N+](=O)[O-])c1
- survivor count (T/C endpoint: mean survival time, dose: 400.0 mg/kg/injection, schedule: Q01DX009 (ip), vehicle: Klucel (hydroxypropylcellulose) (HPC)): 3 of 6

SMILES: [Cl][Pt+2]([Cl])([Cl])[Cl].[NH-]C1CCCCC1.[NH-]C1CCCCC1
- survivor count [2]: 0 of 6

SMILES: O=C(c1ccccc1)C1(c2ccccc2)OP(c2ccccc2)(c2ccccc2)(c2ccccc2)CC1c1ccccc1 (configuration not stated)
- survivor count (T/C endpoint: mean survival time, dose: 100.0 mg/kg/injection, schedule: Q01DX001 (ip), vehicle: saline with Tween-80): 0 of 6
- survivor count [5]: 0 of 6
- survivor count [6]: 0 of 6

SMILES: [Cl][Pt+2][Cl].[NH-]c1ccccc1C(F)(F)F.[NH-]c1ccccc1C(F)(F)F
- survivor count (T/C endpoint: mean survival time, dose: 200.0 mg/kg/injection, schedule: Q04DX003 (ip), vehicle: distilled water + Tween-80): 2 of 6

SMILES: O=c1c2ccccc2on1-c1ncnc2nc[nH]c12
- survivor count (T/C endpoint: mean survival time, dose: 200.0 mg/kg/injection, schedule: Q01DX005 (ip), vehicle: other): 3 of 5

SMILES: O[O][Sn][c]1ccccc1
- survivor count [4]: 3 of 6

SMILES: N/N=C\C(=N/N)C(O)C(O)C(O)CO (configuration not stated)
- survivor count [5]: 3 of 3
- survivor count [6]: 3 of 3

SMILES: CN(C)c1ccc(/C=N/NC(=O)CNC(=O)Nc2cccc([N+](=O)[O-])c2)c(Cl)c1
- survivor count [1]: 3 of 3
- survivor count [2]: 3 of 3

SMILES: CCC(O)(c1ccccc1)C(O)(CC)c1ccccc1 (configuration not stated)
- survivor count (T/C endpoint: mean survival time, dose: 200.0 mg/kg/injection, schedule: Q04DX002 (ip), vehicle: saline with Tween-80): 0 of 3
- survivor count (T/C endpoint: mean survival time, dose: 400.0 mg/kg/injection, schedule: Q04DX002 (ip), vehicle: saline with Tween-80): 0 of 3

SMILES: c1ccc2c(c1)sc1[n+]2CCS1
- survivor count (T/C endpoint: mean survival time, dose: 150.0 mg/kg/injection, schedule: Q01DX001 (ip), vehicle: saline): 0 of 6
- survivor count (T/C endpoint: mean survival time, dose: 300.0 mg/kg/injection, schedule: Q01DX001 (ip), vehicle: saline): 0 of 6

SMILES: C[n+]1c2ccccc2c(Nc2ccc(NS(=O)(=O)CCCCN=C(N)N)cc2)c2ccc(N)cc21
- T/C (T/C endpoint: mean survival time, dose: 12.5 mg/kg/injection, schedule: Q01DX009 (ip), vehicle: water): 139 % of control [7 of 10 alive]
- survivor count (T/C endpoint: mean survival time, dose: 25.0 mg/kg/injection, schedule: Q01DX009 (ip), vehicle: water): 0 of 10
- survivor count [7]: 0 of 10
- survivor count [8]: 0 of 10

SMILES: CN(C)[C@@H]1C(=O)C(C(=O)NCNc2nc3n[nH]nc3c(=O)[nH]2)=C(O)[C@@]2(O)C(=O)C3=C(O)c4c(O)cccc4[C@@](C)(O)[C@H]3C[C@@H]12
- T/C [2]: 131 % of control

SMILES: O=C(O)c1c[nH]c2c(Cl)cccc2c1=O
- survivor count (T/C endpoint: mean survival time, dose: 400.0 mg/kg/injection, schedule: Q01DX001 (ip), vehicle: saline): 0 of 6

SMILES: Nc1n[n+](-c2ccccc2)no1
- survivor count [7]: 6 of 6
- survivor count [8]: 0 of 6 and 4 of 6

SMILES: O=C(O)CC1CCC1CC(=O)O (configuration not stated)
- survivor count [3]: 2 of 6

SMILES: CCOC(=O)c1cnc(NN)nc1Nc1cc(Cl)cc(Cl)c1
- survivor count (T/C endpoint: mean survival time, dose: 50.0 mg/kg/injection, schedule: Q04DX003 (ip), vehicle: saline with Tween-80): 0 of 6

SMILES: COc1nc(C(Cl)(Cl)Cl)c(Cl)c(OC)c1Cl
- T/C (T/C endpoint: median survival time, dose: 90.0 mg/kg/injection, schedule: Q01DX005 (ip), vehicle: Klucel (hydroxypropylcellulose) (HPC)): 126 % of control
- T/C (T/C endpoint: median survival time, dose: 100.0 mg/kg/injection, schedule: Q01DX009 (ip), vehicle: Klucel (hydroxypropylcellulose) (HPC)): 130 and 146 % of control
- T/C (T/C endpoint: median survival time, dose: 120.0 mg/kg/injection, schedule: Q01DX005 (ip), vehicle: Klucel (hydroxypropylcellulose) (HPC)): 141 % of control
- survivor count (T/C endpoint: median survival time, dose: 400.0 mg/kg/injection, schedule: Q01DX009 (ip), vehicle: Klucel (hydroxypropylcellulose) (HPC)): 6 of 6
